Some of the results follow. Shown are side measurements of this screen, not its main read-out; they come without a call. Most of these compounds were active or inconclusive in the main read-out, so they are no random draw. Words in brackets tell the shape of the fitted curve; partial curves, single points and poor fits give uncertain potencies.
Assay: qHTS Assay for Lipid Storage Modulators in Drosophila S3 Cells;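 on cell number change: cells counted by Cell Tracker Red CMTPX staining in the red channel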
Conditions: BODIPY lipid droplet fluorescence, 18-24 h; for cell number change: measured here: cell count max response, cells fed with added oleic acid
Summary of the method: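 Drosophila S3 cells loaded with oleic acid (400 uM, as added) and compounds at several concentrations; lipid droplets imaged by 488-nm laser-scanning cytometry, 500–530 nm intensity and object ratio to cell channel. Percent activity normalized to 20 uM Triacsin C.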

[1] = measured here: lipid fluorescence (Fed channel) AC50, cells fed with added oleic acid
[2] = measured here: cell number channel AC50, cells fed with added oleic acid

| Compound | cell number change [%] | AC50 [1] | AC50 [2] |
| --- | --- | --- | --- |
| Cc1ccc([C@@H]2[C@@H]3C(=O)N(C)C(=O)[C@@H]3[C@]3(C)C(=O)N(CC4CC4)CC(=O)N23)o1 | 24 | 580 nM [rising, single point] | – |
| O=c1[nH]nc(Cc2ccccc2)c2ccccc12 | 44.7 | 731 nM [rising, partial curve, poor fit] | 2310 nM [rising, partial curve] |
| CCC(=O)N1c2ccc(S(=O)(=O)N3CCCC3)cc2CC1C (configuration not stated) | 2.83 | – | – |
| Cc1ccc(S(=O)(=O)NN)c(C)c1N1CCCC1=O | 17.2 | – | – |
| O=C(Cc1ccsc1)NNC(=O)c1cccc(Cl)c1 | -2.16 | – | – |
| CC(C)c1ccc(N(CC(=O)N2CCN(Cc3ccccc3)CC2)S(C)(=O)=O)cc1 | -9.12 | – | 130 nM [rising, partial curve, poor fit] |
| COc1ccc(NC(=O)c2cccc(S(=O)(=O)N3CCOCC3)c2)cn1 | 48.3 | – | – |
| CC[C@H](C)[C@@H](C(=O)NCCCCCCCCCCC(=O)N1CCN(C(=O)OC(C)(C)C)CC1)n1cc(CCCCN=C(NC(=O)OC(C)(C)C)NC(=O)OC(C)(C)C)nn1 | – | 29100 nM [falling, single point] | 6510 nM [falling, single point] |
| COc1cc(/C=C/C(=O)OCC(=O)Nc2ccc3c(c2)OCCO3)ccc1OCC#N | -18 | 651 nM [rising, single point] | – |
| O=C(NC1CCCCC1)c1cc(C(=O)c2ccccc2Br)c[nH]1 | 14.7 | 103 nM [rising, full curve, poor fit] | 103 nM [rising, full curve, poor fit] |
| O=C(O)c1cc(-c2ccc3c(c2)OCCO3)n[nH]1 | 18 | 2060 nM [rising, partial curve] | – |
| CC1CC(=O)N(CC(=O)NCc2ccc(F)cc2)c2ccccc2S1(=O)=O (configuration not stated) | 6.49 | 14600 nM [falling, partial curve, poor fit] | – |
| O=C(COc1ccc2ccc(=O)oc2c1)N1CC[C@@]2(O)CCCC[C@H]2C1 | 11 | 29100 nM [rising, single point] | – |
| Cc1nc(C)n(CC(O)COc2ccc(C(=O)c3ccccc3)cc2)n1 (configuration not stated) | – | 6510 nM [rising, single point] | 6510 nM [rising, single point] |
| COC(=O)c1ccc(/C=C/c2nc3ccccc3c(=O)[nH]2)cc1 | 16.5 | – | – |
| COc1ccc(OC)c(CCNC(=O)CC2Oc3ccccc3NC2=O)c1 (configuration not stated) | -13.7 | – | – |
| COc1ccccc1CNC(=O)C1CSC2(C)CCC(=O)N12 (configuration not stated) | 13.2 | 16400 nM [rising, partial curve] | – |
| CC1(C)CC(=O)C(C=NCCN2CCN(C(=S)Nc3ccc(F)cc3)CC2)=C(O)C1 | -4.46 | – | 103 nM [falling, full curve, poor fit] |
| Cc1ccc(N2C(=O)Nc3ccccc3S2(=O)=O)cc1Cl | 21.1 | 580 nM [rising, single point] | – |
| CCN1c2ccccc2NC2C1C(C(C)=O)C(=O)N2c1ccc(Cl)cc1 (configuration not stated) | -60.1 | 1460 nM [falling, full curve] | 29100 nM [falling, single point] |
| Cc1cc(C)c2sc(N(CCCN(C)C)C(=O)CN3C(=O)c4ccccc4C3=O)nc2c1 | – | 103 nM [falling, full curve, poor fit] | 146 nM [falling, full curve, poor fit] |

3 structures already listed, arranged by count of non-hydrogen atoms, rising:

| Compound | cell number change [%] | AC50 [1] | AC50 [2] |
| --- | --- | --- | --- |
| COc1ccc(NC(=O)c2cccc(S(=O)(=O)N3CCOCC3)c2)cn1 | 48.3 | – | – |
| COc1ccc(OC)c(CCNC(=O)CC2Oc3ccccc3NC2=O)c1 (configuration not stated) | -13.7 | – | – |
| CC(C)c1ccc(N(CC(=O)N2CCN(Cc3ccccc3)CC2)S(C)(=O)=O)cc1 | -9.12 | – | 130 nM [rising, partial curve, poor fit] |

Carrying on:

| Compound | cell number change [%] | AC50 [1] | AC50 [2] |
| --- | --- | --- | --- |
| Cn1c(=O)[nH]c(=O)c2c1nc(NCCCn1ccnc1)n2CCOc1ccccc1 | -7.82 | – | – |
| COc1ccc(NC2=NCCC(=O)N2Cc2cccs2)cc1 | -22.1 | 820 nM [rising, full curve, poor fit] | – |
| N#Cc1c(N)sc2c1CCN(C(=O)OCc1ccccc1)C2 | – | 2910 nM [rising, partial curve] | 3260 nM [rising, partial curve] |
| CCCCn1c(SCC(=O)Nc2ccccc2C(F)(F)F)nc2ccsc2c1=O | -0.919 | 6510 nM [rising, single point] | – |
| CC(=O)c1ccc(NC(=O)C2CCCC2)cc1 | 16.8 | – | – |
| COc1ccccc1N1CCN(C(=O)c2ccc(Cl)c(S(=O)(=O)N3CCOCC3)c2)CC1 | 1.52 | 29100 nM [falling, single point] | – |
| CCOC(=O)CSc1nnc(Cn2nnc(-c3ccccc3)n2)n1C | -17 | 1640 nM [falling, full curve] | – |
| CCCN1Cc2cccc(C(=O)NCc3ccccc3OC)c2C1=O | – | 517 nM [rising, full curve] | 461 nM [rising, full curve, poor fit] |
| O=C(Nc1cc(-c2nc3ncccc3o2)ccc1Cl)c1cccs1 | -36.6 | 29100 nM [falling, single point] | 29100 nM [falling, single point] |
| CCOC(=O)C(=Cc1ccc(F)cc1)C(=O)OCC | -41.3 | 6510 nM [falling, full curve] | 8200 nM [falling, partial curve] |
| NC(=O)NC(Cc1ccccc1)C(=O)N1CCN(S(=O)(=O)c2ccc(Cl)cc2)CC1 (configuration not stated) | -24.1 | – | 820 nM [falling, single point] |
| Cc1cc2ccccc2nc1SCC(=O)N1CCCC1 | 14.5 | 3260 nM [rising, single point] | – |
| COc1ccc(CCNC(=O)Cn2nnc(C(=O)Nc3ccc(Br)cc3)c2N)cc1OC | -68.3 | – | 18400 nM [falling, single point] |
| CCOC(=O)N1CCN(c2c(N3CCN(C(=O)OCC)CC3)c(=O)c2=O)CC1 | -21.7 | – | – |
| CCCCn1c(N)c(N(CCC(C)C)C(=O)CSc2nncn2-c2ccccc2)c(=O)[nH]c1=O | -6.27 | 920 nM [falling, partial curve] | – |
| Cc1ccc(C)c(CSc2nc3[nH]ncc3c(=O)[nH]2)c1 | -5.81 | – | 1640 nM [falling, partial curve] |
| O=C1C=C(c2ccccc2)C[C@H](c2cccs2)[C@H]1n1nnc([N+](=O)[O-])n1 | -7.15 | 13000 nM [falling, single point] | – |
| C=C(C)Cn1c(CCn2c3ccccc3c3ccccc32)n[nH]c1=S | -18.9 | – | – |
| CCOCCn1c(=NC(=O)c2ccc(S(=O)(=O)N3CCOCC3)cc2)sc2cc(S(N)(=O)=O)ccc21 | -28.4 | – | 2310 nM [falling, full curve, poor fit] |
| CNc1nc(N)c([N+](=O)[O-])c(NC2CCCCC2)n1 | -10.6 | – | – |
| Cc1ccc2c(COC(=O)C3=COCCO3)cc(=O)oc2c1 | -8.3 | 14600 nM [falling, partial curve, poor fit] | – |

Rewritten with bars between the fields: part of the list above.
Compound | cell number change [%] | AC50 [1] | AC50 [2]
CCOC(=O)C(=Cc1ccc(F)cc1)C(=O)OCC | -41.3 | 6510 nM [falling, full curve] | 8200 nM [falling, partial curve]
NC(=O)NC(Cc1ccccc1)C(=O)N1CCN(S(=O)(=O)c2ccc(Cl)cc2)CC1 (configuration not stated) | -24.1 | – | 820 nM [falling, single point]

Following part

| Compound | cell number change [%] | AC50 [1] | AC50 [2] |
| --- | --- | --- | --- |
| Cc1ccccc1OCc1nnc(SCC(=O)Nc2ccc(N3CCOCC3)c(Cl)c2)n1C | 8.72 | 517 nM [rising, full curve] | 1300 nM [rising, partial curve] |
| Cc1cc2cc3c(cc2nc1SCC(=O)N1CCCC1)OCCO3 | -0.403 | – | – |
| CC(=O)N1CCN(C2=NC(=O)/C(=C/c3ccc(OS(=O)(=O)c4ccccc4)cc3)S2)CC1 | 0.763 | 651 nM [falling, full curve] | – |
| COCCNC(=O)C(c1ccc(F)cc1)N(Cc1ccccc1)C(=O)CCC(=O)Nc1ccccn1 (configuration not stated) | -2.86 | – | – |
| Cn1c(=O)n(C)c2cc(/C=N/NC(N)=S)ccc21 | 41.8 | – | 18400 nM [rising, single point] |
| COc1cccc2cc(C(=O)C3=C(O)C(=O)N(Cc4ccco4)C3c3cccnc3)oc12 (configuration not stated) | 14.9 | 29100 nM [rising, single point] | – |
| CCOc1ccccc1N1CCN(C/C=C/c2ccc(N(C)C)cc2)CC1 | -24.2 | 146 nM [falling, full curve, poor fit] | – |
| Cc1cc2occ(CC(=O)N(CCC(C)C)c3c(N)n(Cc4ccccc4)c(=O)[nH]c3=O)c2cc1C | -54 | 2060 nM [falling, partial curve] | – |
| COc1cc(C(=O)OCc2cc(=O)oc3c(C)c(C)ccc23)ccc1OC(F)F | -13.2 | – | – |
| O=S(=O)(c1ccccc1)c1ccc(NCc2ccco2)cc1 | -0.106 | 366 nM [rising, full curve, poor fit] | – |
| COc1ccc(Nc2nc(Nc3ccc(OC)cc3OC)nc(N3CCN(C)CC3)n2)c(OC)c1 | 17.8 | 2060 nM [rising, full curve, poor fit] | – |
| COc1ccc(NC(=O)Cc2ccc(-c3ccccc3)cc2)cn1 | 22.9 | – | – |
| CCOC(=O)C1CCCN(C(=O)c2cc(S(=O)(=O)N3CCCCC3)ccc2Cl)C1 (configuration not stated) | 24.5 | – | – |
| CCOc1ccc(NC(=O)CSc2ncnc3c2sc2ccccc23)cc1 | 1.82 | 58 nM [rising, full curve, poor fit] | – |
| CCc1nn(C(CC)C(=O)NCC(C)c2ccccc2)c(=O)c2cc3occc3n12 (configuration not stated) | 5.75 | 130 nM [rising, full curve, poor fit] | – |
| COc1ccc(CNS(=O)(=O)NCc2ccc(OC)c(OC)c2)cc1OC | -1.09 | 3660 nM [rising, partial curve] | 1840 nM [rising, partial curve] |
| COCCn1c(C)nnc1SCC(=O)NNC(=O)c1ccc(Cl)cc1 | 16 | – | – |
| COCCNC(=O)NC12CC3CC(CC(C3)C1)C2 | 47.5 | 20600 nM [rising, single point] | 29100 nM [rising, single point] |
| COc1cccc(-n2c(C)cc(/C=C3\C(=N)N4N=C(CC(=O)N5CCOCC5)SC4=NC3=O)c2C)c1 | 22.7 | – | – |

Reference: PubChem BioAssay AID2685 (National Center for Advancing Translational Sciences (NCATS), 2010)
